± gives the standard deviation. The list shows a part of the results, in another mix than the full data. The uncertainty is large for many entries.
Test system: MILI (PIWIL2) piRISC loaded with Kctd7 piRNA (26 nt)
Experiment: pre-steady-state target cleavage rate (min^-1); MIWI and MILI are mouse PIWI proteins and EfPiwi is from a freshwater sponge; tags in brackets are library labels; higher = faster piRNA-guided slicing of the target
Conditions: guide: Kctd7 piRNA 5'p-UGUUAAUCUCUCAGAGAAGGUGACAG; auxiliary factor: 500 nM mouse GTSF1
Procedure, shortened: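 In Cleave-'n-Seq, a transcribed, DNA-blocked target RNA library (0.1 nM) was combined with 1 nM active affinity-purified piRISC bearing one synthetic guide, with or without 500 nM GTSF1 partner protein. Reactions ran in HEPES–potassium acetate buffer at 33 °C for 0–8 or 0–960 min. Uncleaved targets were sequenced and normalised to depth and to weakly complementary targets, three trials were pooled, and k3 was capped at 0.0001 min^-1. The pre-steady-state cleavage rate was obtained by fitting a burst-and-steady-state model.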

| Sequence | pre-steady-state target cleavage rate |
| --- | --- |
| UAGUGACACACCUUGUCUGAGAGAAUAACA | 0.00208 ± 0.0081 |
| UAGUGACACACCUUCUCUGAGAGAUUAACA [g2:g22:cont:t1A] | 0.178 ± 0.01 |
| UAGUGACAGACCAUCUCUGAGAGAUUUUGA | 0.000717 ± 0.011 |
| UAGUGACAGACGUUCUCUCAGAGAUUAACA | 0.0137 ± 0.0054 |
| UAGUGACAGUGCUUCUCUGAGAGAUUAAAA | 0.0041 ± 0.0043 |
| UAGUGACAGAACCUUCUCUGAGAGAUUAACA | 0.0771 ± 0.01 |
| UAGUGACAGUGGAUCCUGAGAGAUUAACA | 0.000101 ± 0.029 |
| UAGUGACACACCUUCAGAGAGAGAUUAUGA | 0.00119 ± 0.013 |
| UAGUGACAGUGGUUCUCUGAGAGAUUACCA | 0.000309 ± 0.015 |
| UAGUGACAGACCUACUCUGAGAGAUUUUGA | 0.000768 ± 0.011 |
| UAGUGACAGUGGAACUCUGAGUGAUUAAGA | 0.000756 ± 0.021 |
| UAGUGUGUCACCUUCUCUGAGAGUAUAACA | 0.181 ± 0.072 |
| UAGUGUGUCAGGUUCUCUGAGAGAUUAUGA | 0.00789 ± 0.0035 |
| UAGUGACAGUGGUUCUGUGAGACAUUAACA | 0.000222 ± 0.021 |
| UAGUGACAGUCCUUCUCUGAGAGUUAACA | 0.0004 ± 0.011 |
| UAGUCUCACACCUUCUCUGAGAGAUAUUGA | 0.00369 ± 0.0044 |
| UAGUGACAGUCCAUCUCUGAGUGAUUAACA | 0.000955 ± 0.0059 |
| UAGUGACAGUGCUUCUCUGAGAGAUAUAGA | 0.00012 ± 0.016 |
| UAGUCUCUCACCUUCUCUGAGUGAUUAACA | 0.00476 ± 0.0037 |
| UAGUGACAGUGCUUCUGUGAGUGAUUAACA | 0.00306 ± 0.0031 |
| UAGUGACAGUCCUUCUCUGAGAGAAUAAGA | 0.000203 ± 0.023 |
| UAGUGACAGUGGAAGAGACACACAUUAACA | 0.000216 ± 0.034 |
| UAGUGACAGUGGAACUCUGGGAGAUUAACA | 0.000276 ± 0.014 |
| UAGUGACAGUGGAAGAGACAGAGGAUUAACA | 0.000667 ± 0.011 |

A different layout for some results above:
Sequence	pre-steady-state target cleavage rate
UAGUCUCACACCUUCUCUGAGAGAUAUUGA	0.00369 ± 0.0044
UAGUGACAGUCCAUCUCUGAGUGAUUAACA	0.000955 ± 0.0059

Continuation.

| Sequence | pre-steady-state target cleavage rate |
| --- | --- |
| UAGUGACAGUGGAAGACUGAGACGAUUAACA | 0.000149 ± 0.018 |
| UAGUGACAGUCCAUCUCAGAGAGAUUAACA | 0.00278 ± 0.0045 |
| UAGUGUGUCACCUUCUCUGGAGAGAUUAACA | 0.00211 ± 0.0075 |
| UAGUGACAGUCCUUCUACUGAGAGAUUAACA | 0.00139 ± 0.0063 |
| UAGUGACAGUGGUUCUCUGACACAUUAACA | 0.000138 ± 0.029 |
| UAGUGACAGUGCUUCUCUCACAGAUUAACA | 0.00149 ± 0.0058 |
| UAGUGACAGUCCUUCUCAGAGAGAUUAUGA | 0.00157 ± 0.0058 |
| UAGUGACUCACCUUCUCUGAGUGAUUAACA | 0.00117 ± 0.0059 |
| UAGUGACAGUGGAAGAGACUCAGAUUUACA | 0.00033 ± 0.0096 |
| UAGUGACAGUGGUUACUCUGAGAGAUUAACA | 0.000618 ± 0.0075 |
| UAGUGAGUCACCUUCUGUGAGUGAUUAACA | 0.00282 ± 0.0045 |
| UAGUGACAGUGGAAGGCUGAGAGAUUAACA | 0.000167 ± 0.021 |
| UAGUGAGUCACCUUCUGAGAGAGAUUAACA | 0.074 ± 0.011 |
| UAGUGACAGACCUUCUCUGAGACAUUUUGA | 0.000466 ± 0.018 |
| UAGUGACAGUCCUACUCUGAGAGAUUAUGA | 0.000363 ± 0.0088 |
| UAGUGACAGUGGAAGAGUGAGUCUUUAACA | 0.000206 ± 0.027 |
| UAGUGACAGUCCUUCUCUGAGAGUUUAUCA | 0.000492 ± 0.011 |
| UAGUCCUGUCACCUUCUCUGAGAGAUUAACA | 0.275 ± 0.026 |
| UAGUGACUCUCCUUCUCUGAGAGAUUUUGA | 0.00286 ± 0.0044 |
| UAGUGACACUCCUUCUCUGAGAGAUAUUGA | 0.00127 ± 0.0069 |
| UAGUGUCAGACCUUCUCUGAGAGAUUUUGA | 0.000952 ± 0.01 |
| UAGUGAGUCACCUUCUCUGAGUCAUUAUGA | 0.00101 ± 0.011 |
| UAGUGAGUGUGCUUCUCUGAGAGAUUAUGA | 0.00163 ± 0.0048 |
| UAGUGACAGUCCUACUCUGACAGAUUAACA | 0.000129 ± 0.022 |

| Sequence | pre-steady-state target cleavage rate |
| --- | --- |
| UAGUGACAGUGGAAGAGACAGAGAUUUAACA | 0.000299 ± 0.02 |
| UAGUGACACACCUUCUCUGAGGAUUAACA | 0.00287 ± 0.0048 |
| UAGUGACAGUCCUACUCAGAGAGAUUAACA | 0.00159 ± 0.0048 |
| UAGUGACAGUGGUUCUCUGUGACAUUAACA | 0.000309 ± 0.025 |
| UAGUGAGUCACCUUCUGACUCUCUAAUUGA [g15:g24:cont:t1A] | 0.000555 ± 0.017 |
| UAGUGACAGUGGAAGUCUGAGACGAUUAACA | 0.000269 ± 0.025 |
| UAGUGUGUCACCUUCUCUGACAGAAUAACA | 0.00162 ± 0.0058 |
| UAGUGACACACCUUCUCUGUGUGAUUAACA | 0.00236 ± 0.0064 |
| UAGUGACAGACCUUCUCUGACAGAUUUACA | 0.0017 ± 0.0058 |
| UAGUGACAGUGCUUCUCUGAGAGAAUUACA | 0.000111 ± 0.029 |
| UAGUGACAGUGGAUCUCUGACACAUUAACA | 0.00041 ± 0.012 |
| UAGUGACAGUGGAAGAGUCAGACAUUAACA | 0.000121 ± 0.039 |
| UAGUGACAGACCUUCUGCUGAGAGAUUAACA | 0.000711 ± 0.018 |
| UAGUGACUCACCUUCUCUGAGUCAUUAACA | 0.00108 ± 0.01 |
| UAGUGACAGUCCAUCUCUGAGAGUUUAACA | 0.00301 ± 0.0032 |
| UAGUGAGUCAGGAUCUCUGAGAGAUUAUGA | 0.0014 ± 0.0042 |
| UAGUGACUCACCUUCUCUGAGAGAUUAAA | 0.13 ± 0.031 |
| UAGUGACAGACGUUCUCUGAGUGAUUAACA | 0.00122 ± 0.01 |
| UAGUGACAGUGGAUCAUCUGAGAGAUUAACA | 0.000963 ± 0.0028 |
| UAGUGACAGUCCUUCUCUGAGCGAUUAACA | 0.00135 ± 0.0049 |
| UAGUGACAGUGGAACUCUGAGAGAUUAAGCA | 0.000173 ± 0.033 |
| UAGUGACAGUGGAAGUCUGAUAGAUUAACA | 0.000256 ± 0.0097 |
| UAGUGACAGUGGAACUCUGAUAGAUUAACA | 0.00019 ± 0.027 |
| UAGUGUGUCAGCUUCUCUGUGAGAUUAACA | 0.0415 ± 0.0032 |

Quoted at random: 3 records from the list.

| Sequence | pre-steady-state target cleavage rate |
| --- | --- |
| UAGUGACAGUCCUUCUCUGAGAGUUAACA | 0.0004 ± 0.011 |
| UAGUGACAGUGGUUCUCUGAGAGAUUACCA | 0.000309 ± 0.015 |
| UAGUGACAGACCUACUCUGAGAGAUUUUGA | 0.000768 ± 0.011 |

— the supplement of paper PMC10338343
